In patent publication US12448366B2, “Solid forms of pralsetinib” (Rigel Pharmaceuticals, Inc., priority 2020, dated 2025):
For at least one compound, name, drawing or mass did not settle the structure.

Assay: Salt screening: XRPD of wet cake, after drying under vacuum at 50° C., after exposure to 97% relative humidity
Type: physicochemical
Details: for XRPD Pattern Dry: after drying; for XRPD Pattern Wet: wet cake
Description: Stock solutions of counter-ion were prepared in EtOH, MeOH, or EtOAc, depending on solubility. […] The solvent was allowed to evaporate at room temperature over the weekend and then placed at 50° C. under vacuum for 3 hours to remove any remaining solvent. Approximately 25 volumes solvent (0.6 mL) was added to each vial for screening. The three solvents selected were EtOH, EtOAc, and IPA:water (9:1 vol). […] XRPD analysis was done in three stages. XRPD of the wet cake was done for all samples. Unique solids were then left on XRPD plates and dried under vacuum at 50° C. XRPD of unique dry solids was then done. […] The humid environment was generated by placing a beaker of saturated potassium sulfate in water in a sealed container. All XRPD patterns were compared to counter ion XRPD patterns and known free base patterns. Where solids were not of sufficient quantity to isolate, the solvent was evaporated at room temperature, the material dried at 50° C. under active vacuum for 3 hours, and then reslurried at room temperature in either MtBE or IPAc overnight after heating to 45° C. for 30 minutes.

SMILES: CS(=O)(=O)O [MSA]
- XRPD Pattern Dry (solvent EtOAc): 2-B
- XRPD Pattern Humid (solvent EtOAc, after humidity exposure): 2-D
- XRPD Pattern Wet (solvent EtOAc): 2-B
- XRPD Pattern Dry (solvent EtOH): 2-B
- XRPD Pattern Wet (solvent EtOH): 2-A + 2-B
- XRPD Pattern Wet (solvent IPA:water (9:1 vol)): 2-C (small
